Assay results reported in publication PMC9018712.
No constants are given. Whether binding was seen depends on the method and setting. Binding seen in cells or lysates may run through a third protein. A yes stands for co-enrichment or nearness to the bait. Other partners may have been found. Sequences can lack the tags named with a protein.

Biological target: T1, glutathione S-transferase (GST)-tagged GRHL3 (UniProt Q5FWH3)
T1 sequence: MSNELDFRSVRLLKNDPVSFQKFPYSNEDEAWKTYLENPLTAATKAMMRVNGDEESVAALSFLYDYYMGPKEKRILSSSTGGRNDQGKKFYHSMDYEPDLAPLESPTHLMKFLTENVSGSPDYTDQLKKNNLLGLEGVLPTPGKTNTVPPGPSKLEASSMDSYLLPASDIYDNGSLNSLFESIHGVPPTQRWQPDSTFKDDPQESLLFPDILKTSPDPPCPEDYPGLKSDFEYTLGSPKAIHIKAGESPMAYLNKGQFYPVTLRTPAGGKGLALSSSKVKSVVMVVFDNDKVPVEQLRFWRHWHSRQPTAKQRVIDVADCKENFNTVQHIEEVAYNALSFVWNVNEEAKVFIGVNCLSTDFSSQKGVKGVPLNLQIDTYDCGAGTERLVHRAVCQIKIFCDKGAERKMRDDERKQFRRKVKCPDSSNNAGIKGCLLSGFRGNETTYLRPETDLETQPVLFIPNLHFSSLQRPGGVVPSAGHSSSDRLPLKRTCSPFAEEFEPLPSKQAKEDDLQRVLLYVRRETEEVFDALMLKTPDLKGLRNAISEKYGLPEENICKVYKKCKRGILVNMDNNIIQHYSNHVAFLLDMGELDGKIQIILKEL
Assay: affinity purification with mass spectrometry; GST-tagged GRHL3 (GST-tag alone as control) expressed in MCF7 cells; specific protein bands subjected to mass spectrometry

binding: binds
B1: ubiquitin-specific protease 39 (USP39), endogenous in MCF7 cells (protein, UniProt Q53GS9 1-565)
chain: MSGRSKRESRGSTRGKRESESRGSSGRVKRERDREREPEAASSRGSPVRVKREFEPASAREAPASVVPFVRVKREREVDEDSEPEREVRAKNGRVDSEDRRSRHCPYLDTINRSVLDFDFEKLCSISLSHINAYACLVCGKYFQGRGLKSHAYIHSVQFSHHVFLNLHTLKFYCLPDNYEIIDSSLEDITYVLKPTFTKQQIANLDKQAKLSRAYDGTTYLPGIVGLNNIKANDYANAVLQALSNVPPLRNYFLEEDNYKNIKRPPGDIMFLLVQRFGELMRKLWNPRNFKAHVSPHEMLQAVVLCSKKTFQITKQGDGVDFLSWFLNALHSALGGTKKKKKTIVTDVFQGSMRIFTKKLPHPDLPAEEKEQLLHNDEYQETMVESTFMYLTLDLPTAPLYKDEKEQLIIPQVPLFNILAKFNGITEKEYKTYKENFLKRFQLTKLPPYLIFCIKRFTKNNFFVEKNPTIVNFPITNVDLREYLSEEVQAVHKNTTYDLIANIVHDGKPSEGSYRIHVLHHGTGKWYELQDLQVTDILPQMITLSEAYIQIWKRRDNDETNQQGA
